Measurements as given in US20110105733A1 (Ablynx, published 2011).
Results are given in words; binding and its absence hold for the method and conditions named. Some results given as binding are weak or reduced against the parent protein; the word gives no strength.

The chains behind the UniProt entries cited, without tags or fusion partners. Where a name states a change or a piece, a line headed by the entry shows the natural chain unless it says otherwise. Residues count along the entry.
UniProt P46531, residues 19-526: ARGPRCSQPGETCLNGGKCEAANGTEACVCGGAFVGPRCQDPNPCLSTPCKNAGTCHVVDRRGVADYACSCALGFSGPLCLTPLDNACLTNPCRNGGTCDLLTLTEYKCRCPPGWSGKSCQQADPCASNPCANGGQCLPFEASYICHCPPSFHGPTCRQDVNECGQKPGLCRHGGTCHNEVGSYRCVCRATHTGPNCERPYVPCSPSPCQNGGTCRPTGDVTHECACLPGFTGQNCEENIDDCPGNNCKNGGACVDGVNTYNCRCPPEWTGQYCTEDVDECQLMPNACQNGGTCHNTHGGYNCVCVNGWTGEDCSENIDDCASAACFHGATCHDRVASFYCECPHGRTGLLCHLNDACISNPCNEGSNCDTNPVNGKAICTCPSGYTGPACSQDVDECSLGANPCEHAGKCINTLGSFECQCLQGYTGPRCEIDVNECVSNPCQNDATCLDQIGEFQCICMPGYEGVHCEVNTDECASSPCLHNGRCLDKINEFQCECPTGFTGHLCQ
UniProt Q63722, residues 34-1067: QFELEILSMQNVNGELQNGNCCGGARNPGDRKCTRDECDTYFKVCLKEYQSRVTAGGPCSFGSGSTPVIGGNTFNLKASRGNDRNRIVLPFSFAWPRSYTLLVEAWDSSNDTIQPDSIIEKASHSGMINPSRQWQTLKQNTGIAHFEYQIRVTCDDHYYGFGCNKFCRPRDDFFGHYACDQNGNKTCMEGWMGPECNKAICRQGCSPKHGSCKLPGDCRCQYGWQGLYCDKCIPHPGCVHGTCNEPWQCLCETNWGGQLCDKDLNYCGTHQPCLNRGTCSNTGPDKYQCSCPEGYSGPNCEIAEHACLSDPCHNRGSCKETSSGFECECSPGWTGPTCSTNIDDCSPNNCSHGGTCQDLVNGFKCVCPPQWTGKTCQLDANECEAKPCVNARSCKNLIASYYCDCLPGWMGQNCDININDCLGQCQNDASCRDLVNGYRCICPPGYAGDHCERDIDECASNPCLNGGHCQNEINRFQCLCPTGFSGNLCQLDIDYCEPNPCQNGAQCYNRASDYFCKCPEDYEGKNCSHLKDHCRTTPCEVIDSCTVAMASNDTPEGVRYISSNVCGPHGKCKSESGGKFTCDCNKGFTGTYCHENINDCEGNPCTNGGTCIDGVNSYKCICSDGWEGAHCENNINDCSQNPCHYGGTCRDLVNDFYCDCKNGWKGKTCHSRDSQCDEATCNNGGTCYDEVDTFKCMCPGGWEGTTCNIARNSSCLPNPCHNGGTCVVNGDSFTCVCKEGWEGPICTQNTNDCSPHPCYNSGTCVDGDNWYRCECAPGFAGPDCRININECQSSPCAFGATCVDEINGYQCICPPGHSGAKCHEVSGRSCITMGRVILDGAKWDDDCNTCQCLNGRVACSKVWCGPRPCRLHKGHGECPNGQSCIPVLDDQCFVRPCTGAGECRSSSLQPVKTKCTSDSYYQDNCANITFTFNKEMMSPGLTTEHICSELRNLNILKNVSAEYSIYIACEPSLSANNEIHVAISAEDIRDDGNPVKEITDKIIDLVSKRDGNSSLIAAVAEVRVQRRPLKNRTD

Assays:
[1] = target: recombinant human Notch-1/Fc Chimera (R&D Systems Cat No 3647-TK) (human) (UniProt P46531); assay: competition ELISA on coated rhNotch-1/hFc, competitor of biot-Jagged-1 (legend of FIG. 3)
[2] = target: recombinant human Notch-1/Fc Chimera (R&D Systems Cat No 3647-TK) (human) (UniProt P46531); assay: competition ELISA: rhDLL4 coated at 5 ug/mL, series of non-biotinylated Jagged-1 mixed with 0.2 ug/mL rhNotch-1/hFc, detection by anti-hFc-HRP, OD 490 nm; competitor: coated DLL4
[3] = target: recombinant human Notch-1/Fc Chimera (R&D Systems Cat No 3647-TK) (human) (UniProt P46531); assay: competition ELISA: rhNotch-1/hFc coated at 5 ug/mL, series of non-biotinylated Jagged-1 mixed with 0.3 ug/mL biotinylated rrJagged-1 (the competitor), detection by streptavidin-PO, OD 490 nm
[4] = target: recombinant human Notch-1/Fc Chimera (R&D Systems Cat No 3647-TK) (human) (UniProt P46531); assay: ELISA: rhNotch-1/hFc coated at 5 ug/mL, 0.3 ug/mL biotinylated rrJagged-1 without competitor, detection by streptavidin-PO, OD 490 nm

| binding [1] | binding [2] | binding [3] | binding [4] | Substance |
| --- | --- | --- | --- | --- |
| binds | binds | binds |  | rat Jagged-1 (rrJagged-1, R&D Systems Cat #599-JG) (from UniProt Q63722 34-1067) (ligand) |
|  |  |  | binds | biotinylated rrJagged-1 (from UniProt Q63722 34-1067) (ligand) |
